Experiment [1] has as its target Annexin A2 (p36) on human monocytes (human) (UniProt P07355). Briefly: flow cytometry, FITC-plasmin on human monocytes. On the technique in general: A flow cytometer gives signals particle by particle.
Experiment [2] has the same target. Nature of the experiment: flow cytometry, FITC-plasmin on human monocytes with or without anti-annexin A2 / anti-p36 / anti-p11 antibodies (FIGS. 3C, 3F).
Experiment [3] concerns the target S100A10 (p11) on human monocytes (human) (UniProt P60903). The experiment is described as above.
Experiment [4] concerns the target Annexin A2 (p36) on human monocytes (human) (UniProt P07355). Briefly: flow cytometry on human monocytes (FIGS. 6C, 6D).

The chains behind the UniProt entries cited, without tags or fusion partners. Residues count along the entry.
UniProt P07355, residues 2-339: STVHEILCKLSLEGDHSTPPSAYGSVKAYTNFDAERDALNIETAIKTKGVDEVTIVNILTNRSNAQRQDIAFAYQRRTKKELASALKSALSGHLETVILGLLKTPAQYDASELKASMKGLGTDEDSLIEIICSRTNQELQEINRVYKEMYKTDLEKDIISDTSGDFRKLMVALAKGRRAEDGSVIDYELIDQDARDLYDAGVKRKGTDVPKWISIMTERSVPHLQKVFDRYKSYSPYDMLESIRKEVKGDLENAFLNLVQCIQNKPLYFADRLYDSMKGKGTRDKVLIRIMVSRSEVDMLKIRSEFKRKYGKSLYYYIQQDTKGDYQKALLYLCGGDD
UniProt P60903: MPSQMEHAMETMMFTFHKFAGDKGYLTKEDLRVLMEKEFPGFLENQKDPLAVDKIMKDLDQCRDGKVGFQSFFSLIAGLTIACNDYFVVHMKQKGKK
UniProt P00747, residues 97-810: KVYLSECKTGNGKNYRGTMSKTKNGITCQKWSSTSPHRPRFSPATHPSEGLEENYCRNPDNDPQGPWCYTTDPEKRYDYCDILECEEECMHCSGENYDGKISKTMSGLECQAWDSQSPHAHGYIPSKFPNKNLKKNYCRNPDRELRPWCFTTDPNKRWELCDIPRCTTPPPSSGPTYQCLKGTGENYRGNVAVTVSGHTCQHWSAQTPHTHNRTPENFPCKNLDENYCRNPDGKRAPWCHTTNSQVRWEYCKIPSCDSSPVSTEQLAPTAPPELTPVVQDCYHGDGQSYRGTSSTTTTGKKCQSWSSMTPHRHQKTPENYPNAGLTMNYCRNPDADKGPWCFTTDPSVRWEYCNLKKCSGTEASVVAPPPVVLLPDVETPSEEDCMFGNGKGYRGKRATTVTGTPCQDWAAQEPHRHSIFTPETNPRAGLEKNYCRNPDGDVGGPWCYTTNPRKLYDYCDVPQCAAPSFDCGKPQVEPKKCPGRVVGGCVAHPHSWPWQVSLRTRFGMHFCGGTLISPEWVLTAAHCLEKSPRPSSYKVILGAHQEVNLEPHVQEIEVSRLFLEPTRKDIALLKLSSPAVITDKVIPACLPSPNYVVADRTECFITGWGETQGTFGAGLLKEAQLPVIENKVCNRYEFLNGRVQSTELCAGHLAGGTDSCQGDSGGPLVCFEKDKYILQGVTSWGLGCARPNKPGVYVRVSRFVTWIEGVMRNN

No constants are given. Whether binding was seen depends on the method and setting. Some results given as binding are weak or reduced against the parent protein; the word gives no strength.

As for “Plasmin (FITC-labeled plasmin in the flow cytometry assays) (from UniProt P00747 97-810) (enzyme)”, the binding entry in experiment [1], in experiment [2] and in experiment [3] was “binds” throughout.
In the case of “Inactive plasmin, in which the catalytic site had been irreversibly blocked with a peptide inhibitor (from UniProt P00747 97-810) (enzyme)”, the binding result in experiment [4] was “binds”.

The values above are taken from patent publication US20090142330A1, “Use of inactive-plasmin to treat chronic inflammatory disease and tumors” (The Government of the United States of America as …, priority 2007, published 2009).
